{"source": "patent US12544357B2", "about": "“Compositions and methods for the treatment of Plasmodium falciparum malaria” (priority 2021, dated 2026)", "key": {"[1]": {"system": "P. falciparum strain 3D7 parasites", "experiment": "parasite killing assay, P. falciparum 3D7, pLDH readout", "type": "cell-based, Plasmodium falciparum", "settings": "for selectivity index: summary of SAR study", "description": "P. falciparum strain 3D7 parasites were synchronized to the ring stage and incubated with a dilution series of compound or media control for 48 hours followed by quantification of parasitemia by Plasmodium lactate dehydrogenase assay (pLDH) assay.\nP. falciparum strain 3D7 (Panels A and C) or 3D7 PfGARP KO (Panel B) parasites were synchronized to the ring stage and incubated with a dilution series of compound or media control for 48 hours followed by quantification of parasitemia by pLDH assay.\nA limited structure-activity relationship (SAR) study was then conducted, evaluating 48 analog compounds having the same backbone (black in FIG. 3 inset and FIG. 4), but varying R groups (red) using P. falciparum strain 3D7 and 3D7 PfGARP KO parasites. For the SAR study, 3D7 or 3D7 PfGARP KO parasites were synchronized to the ring stage and incubated with a dilution series of compounds or media control for 48 hours followed by quantification of parasitemia by Plasmodium lactate dehydrogenase assay (pLDH) assay.^30 Each dilution was evaluated in quadruplicate. In all experiments, DMSO concentration was <0.1%.\nThe small molecule compounds shown in FIG. 4 were tested for their abilities to kill P. falciparum strain 3D7 parasites."}, "single dose PK in mice": {"experiment": "single dose PK in mice", "type": "in vivo, Balb/cJ mice", "settings": "IP, 100 mg/kg dose, 8-hour dose interval"}}, "note": "Some entries share one result that the patent states for a list of compounds."}
{"smiles": "CC(C(=O)Nc1ccccc1Cl)N(c1ccc2c(c1)OCCO2)S(C)(=O)=O", "note": "(centres unmarked) [ID #9078424]", "values": [{"measurement": "selectivity index", "setting": "[1]", "value": "> 100"}, {"measurement": "plasma trough levels", "setting": "single dose PK in mice", "value": "above 50 μM"}]}
{"smiles": "CSc1cccc(NC(=O)C(C)N(c2ccc3c(c2)OCCO3)S(C)(=O)=O)c1", "note": "(centres unmarked) [ID #9081579]", "values": [{"measurement": "IC50", "setting": "[1]; 3D7 parasites, ring stage, 48 hours, pLDH assay", "value": "1000 to 5000", "unit": "nM"}, {"measurement": "selectivity index", "setting": "[1]", "value": "> 100"}, {"measurement": "plasma trough levels", "setting": "single dose PK in mice", "value": "above 50 μM"}]}
